Among the data in doi:10.1101/2025.07.09.663887 are binding values, retold here.

Protein sequences, listed by entry. Tags and fused reporters are not part of them.
UniProt Q9NZJ0: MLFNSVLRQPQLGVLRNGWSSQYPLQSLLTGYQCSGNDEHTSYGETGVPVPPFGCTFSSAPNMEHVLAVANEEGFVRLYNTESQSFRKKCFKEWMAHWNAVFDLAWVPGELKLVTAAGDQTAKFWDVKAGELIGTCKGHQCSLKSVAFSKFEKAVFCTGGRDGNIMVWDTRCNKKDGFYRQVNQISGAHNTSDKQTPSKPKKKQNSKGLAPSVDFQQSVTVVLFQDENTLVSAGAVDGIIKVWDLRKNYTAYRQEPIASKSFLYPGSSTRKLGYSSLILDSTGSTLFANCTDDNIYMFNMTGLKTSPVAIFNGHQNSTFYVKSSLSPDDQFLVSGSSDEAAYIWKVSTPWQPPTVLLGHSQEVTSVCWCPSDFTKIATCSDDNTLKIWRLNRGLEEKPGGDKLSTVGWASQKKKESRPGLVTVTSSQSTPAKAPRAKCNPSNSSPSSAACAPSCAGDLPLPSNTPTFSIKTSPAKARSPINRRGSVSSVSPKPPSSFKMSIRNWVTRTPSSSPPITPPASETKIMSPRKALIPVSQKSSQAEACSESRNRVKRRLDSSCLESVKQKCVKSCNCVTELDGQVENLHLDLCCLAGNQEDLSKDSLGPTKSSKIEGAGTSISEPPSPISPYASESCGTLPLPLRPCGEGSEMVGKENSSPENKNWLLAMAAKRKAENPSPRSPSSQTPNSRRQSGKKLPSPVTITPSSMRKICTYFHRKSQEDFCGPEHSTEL
UniProt Q00987: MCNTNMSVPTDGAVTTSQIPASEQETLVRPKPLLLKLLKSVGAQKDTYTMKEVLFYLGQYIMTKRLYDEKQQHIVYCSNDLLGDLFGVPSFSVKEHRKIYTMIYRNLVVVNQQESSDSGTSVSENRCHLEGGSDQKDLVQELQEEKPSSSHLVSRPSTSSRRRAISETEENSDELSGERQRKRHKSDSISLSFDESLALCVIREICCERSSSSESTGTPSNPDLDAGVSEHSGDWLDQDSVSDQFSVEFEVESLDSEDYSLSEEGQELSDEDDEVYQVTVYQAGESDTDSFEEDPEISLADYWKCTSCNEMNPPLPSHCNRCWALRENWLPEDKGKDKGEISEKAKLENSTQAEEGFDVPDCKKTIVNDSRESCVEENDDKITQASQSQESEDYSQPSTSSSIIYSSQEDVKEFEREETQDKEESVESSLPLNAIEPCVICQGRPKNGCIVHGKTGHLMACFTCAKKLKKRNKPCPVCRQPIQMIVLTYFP

Experiment in all cases: co-IP
In one test the target is Flag-Cdt2 (UniProt Q9NZJ0).
Test [1] concerns the target Mdm2 (endogenous) (human (endogenous in U2OS)) (UniProt Q00987).
For the next test, the target named is myc-Mdm2 (UniProt Q00987).

No constants are given. Whether binding was seen depends on the method and setting. Binding seen in cells or lysates may run through a third protein. Some results given as binding are weak or reduced against the parent protein; the word gives no strength.

With myc-Mdm2 (from UniProt Q00987 1-491), in the test with Flag-Cdt2, the binding entry is given as “binds”.

For “Cdt2 (endogenous) (from UniProt Q9NZJ0 1-730)”, in test [1], the binding entry is given as “binds”.

For the substance Flag-Cdt2 (from UniProt Q9NZJ0 1-730), in the test with myc-Mdm2, the binding result is given as “binds”.
